Test results published in PMC12208403.

Amino acid sequences for entries named in this document (tags omitted). A change or cut given only in a name is not applied to a line headed by its entry.
UniProt P63172: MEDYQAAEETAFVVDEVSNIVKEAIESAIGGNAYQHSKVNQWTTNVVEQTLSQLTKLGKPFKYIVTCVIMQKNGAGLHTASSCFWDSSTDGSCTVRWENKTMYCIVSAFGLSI
UniProt Q9UM00: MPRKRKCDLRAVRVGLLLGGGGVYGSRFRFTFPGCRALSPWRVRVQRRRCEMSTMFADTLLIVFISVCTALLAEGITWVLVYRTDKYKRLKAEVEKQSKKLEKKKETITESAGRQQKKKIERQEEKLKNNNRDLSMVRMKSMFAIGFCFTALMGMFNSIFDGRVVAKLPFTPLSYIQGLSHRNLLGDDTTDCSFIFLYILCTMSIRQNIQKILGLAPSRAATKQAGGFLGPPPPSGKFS

Target: Dynein light chain type 1 (DYNLT1) (human (endogenous in iPSC-aCMs)) (UniProt P63172)
Assay: affinity purification with mass spectrometry; IP of endogenous DYNLT1 from iPSC-aCM lysate with anti-DYNLT1 antibody or control IgG, magnetic beads, SDS-PAGE, in-gel digestion, LC-MS/MS

Substance: TMCO1 (from UniProt Q9UM00)
- binding: binds

Results are given in words; binding and its absence hold for the method and conditions named. In cells and extracts the contact can be indirect. These calls come from enrichment with a bait or labelling near it, and not all partners need be listed.
